Values quoted from earlier work, collected in patent US7858659B2, “Redox therapy for tumors” (priority 2003, dated 2010).
At least one compound was matched to its structure with a doubt left.

Assays:
[1] = test system: malignant cells; conditions: Table 1; BSO: [Kito]; cited from earlier work
[2] = test system: malignant cells; conditions: cited from earlier work
[3] = test system: A-427 and A-172; conditions: cited from earlier work

Which results are given for `CCN(CC)C(=S)SSC(=S)N(CC)CC` [Disulfiram]?
Apoptosis [1]: Induction; Effective Concentration in vitro ([2]; Example 4 table): 10 µM; Concentration ([2]; Table 1, disulfiram: [Cen]): 10 microM [Cen]

With `CC/C=C\C/C=C\C/C=C\C/C=C\C/C=C\C/C=C\CCC(=O)O` [docosahexaenoic acid] as the compound, how does the “sensitivity of A-427” value [3] read?
The value was “highly sensitive”.
